From PubChem BioAssay AID2685 (National Center for Advancing Translational Sciences (NCATS), 2010)
About 2,100 (0.66%) of roughly 320,000 compounds were called active. This list was built around the results that the source calls inconclusive (neither active nor inactive); the mix of calls is not that of the screen. The call rests on the fitted dose curve; in most records, active means well fitted inhibition curve with a large enough effect in the signal ratio, with a control signal flat (not every such curve was filed as active); inconclusive means small, poorly fitted or top-dose-only effect, or effect the other way, or a change in a side signal; inactive means flat fitted curve, though single readings scatter; the % refers to the signal ratio. Potencies beside an inconclusive call are fits to weak or partial responses and may not hold up.

Test: qHTS Assay for Lipid Storage Modulators in Drosophila S3 Cells
Settings: BODIPY lipid droplet fluorescence, 18-24 h, cells fed with added oleic acid; lipid storage change, negative = inhibition: at 46.1 µM (top of the series) unless noted
Summary of the method: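 Drosophila S3 cells loaded with oleic acid (400 uM, as added) and compounds at several concentrations; lipid droplets imaged by 488-nm laser-scanning cytometry, 500–530 nm intensity and object ratio to cell channel. Percent activity normalized to 20 uM Triacsin C.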
On the % scale 0 is the no-effect control and ±100 the full control effect; potency means the concentration at half of the fitted maximal effect.

**Q.** Which lipid storage change, negative = inhibition does the source give for `CCC(Oc1ccccc1)C(=O)Nc1ccc(S(=O)(=O)Nc2cc(C)on2)cc1` (stereo not drawn) here?
**A.** inconclusive: -8.99%

**Q.** Which lipid storage change, negative = inhibition does the source give for `C=C(C)C1CCC(C)=C1COC(=O)Nc1ccccc1` (stereo not drawn) here?
**A.** inconclusive: 17.7%

**Q.** Which lipid storage change, negative = inhibition does the source give for `CC(=O)NN1C(=O)/C(=C\c2ccc(O)cc2)SC1=S` here?
**A.** inconclusive: -19.5%

**Q.** For `CC(C)C(c1nnnn1C1CCCC1)N1CCCc2ccccc21` (stereo not drawn), which lipid storage change, negative = inhibition is on record?
**A.** inconclusive: -19.5%

**Q.** For `COc1cc2c(cc1OC)CN(CC(=O)Nc1ccc3c(c1)OCO3)CC2`, which lipid storage change, negative = inhibition is on record?
**A.** inconclusive: -1.03%

**Q.** For `Cc1ccc2c(c1)[nH]c1c(=O)n(CCN3CCNCC3)cnc12`, which Potency is on record?
**A.** inconclusive: 0.411 µM [falling, full curve]

**Q.** For `Cc1ccc(NC(=O)Cn2c(=O)oc3ccccc32)c(C)c1`, which lipid storage change, negative = inhibition is on record?
**A.** inconclusive: 32%

**Q.** Which lipid storage change, negative = inhibition does the source give for `O=C(CSc1nc2nc3c(cc2c(=O)n1-c1ccccc1)CCCC3)Nc1cccc2ccccc12` here?
**A.** inconclusive: 13.2%

**Q.** Which Potency does the source give for `Cc1cc(=O)[nH]c(SCC(=O)Nc2c(C)n(C)n(-c3ccccc3)c2=O)c1C#N` here?
**A.** inconclusive: 0.58 µM [falling, single point]

**Q.** For `O=C(COc1ccc(Br)cc1)NCCN1CCCC1`, which lipid storage change, negative = inhibition is on record?
**A.** inconclusive: 22.8%

**Q.** With `Cc1cccc(OCCCCCNCCO)c1` as the compound, how does the Potency read?
**A.** inconclusive: 2.06 µM [falling, partial curve]

**Q.** With `O=C(CCc1c[nH]c2ccccc12)OCc1cccc([N+](=O)[O-])c1` as the compound, how does the Potency read?
**A.** active: 5.8 µM

**Q.** For `CC/C(=N\NC(=O)C1CCCC1)c1ccc(Br)cc1`, which Potency is on record?
**A.** inconclusive: 29.1 µM [activator, single point]

**Q.** Which lipid storage change, negative = inhibition does the source give for `O=C(NC1CCCN(Cc2ccc(Cl)cc2)C1)c1c(F)cccc1F` (stereo not drawn) here?
**A.** inconclusive: 13.7%

**Q.** For `Cc1sc(NC(=O)CSc2nnc(COc3ccccc3)n2C)c(C#N)c1C`, which lipid storage change, negative = inhibition is on record?
**A.** inconclusive: -10.3%

**Q.** For `C#CCNC(=O)/C=C/c1ccc(OC)cc1`, which lipid storage change, negative = inhibition is on record?
**A.** inconclusive: -6.26%

**Q.** For `CCOc1ccccc1-c1ccc(C(=O)NCc2ccccc2)o1`, which lipid storage change, negative = inhibition is on record?
**A.** inconclusive: 27%

**Q.** With `COc1ccc(CC(=O)n2nc(-c3ccccc3)nc2NCc2ccco2)cc1` as the compound, how does the Potency read?
**A.** inconclusive: 29.1 µM [rising, single point]

**Q.** Which lipid storage change, negative = inhibition does the source give for `Cc1ccc(C)c(N2CCN(C(=O)CCCOc3cc(=O)n(C)c4ccccc34)CC2)c1` here?
**A.** inconclusive: 24.1%

**Q.** For `CN1C(=O)c2ccc(NC(=O)c3cccc(N4C(=O)CCC4=O)c3)cc2C1=O`, which lipid storage change, negative = inhibition is on record?
**A.** inconclusive: -0.743%

**Q.** With `Cc1c(NC(=O)CC(C)C)c(=O)n(-c2ccccc2)n1C` as the compound, how does the lipid storage change, negative = inhibition read?
**A.** inconclusive: -9.75%

**Q.** With `O=C(NN1CCOCC1)c1ccccc1Br` as the compound, how does the Potency read?
**A.** inconclusive: 29.1 µM [activator, single point]

**Q.** With `O=C(NCc1cccnc1)c1ccc(Cl)c(S(=O)(=O)N2CCOCC2)c1` as the compound, how does the “outcome” value read?
**A.** inactive [at 46.1 µM]

**Q.** For `O=C(NCCN1CCOCC1)/C(=C\c1ccc(Br)cc1)NC(=O)c1cccs1`, which lipid storage change, negative = inhibition is on record?
**A.** inconclusive: 17.7%

**Q.** For `O=C(COc1ccccc1F)Nc1cc(S(=O)(=O)Nc2cccc(Cl)c2)ccc1O`, which lipid storage change, negative = inhibition is on record?
**A.** inconclusive: 11.4%

**Q.** With `CC(=O)N1CCN(S(=O)(=O)c2cccc(C(=O)Nc3ccccc3N3CCCC3)c2)CC1` as the compound, how does the Potency read?
**A.** inconclusive: 4.11 µM [falling, single point]

**Q.** With `CCOc1ccc(CC(=O)N/N=C/c2cccnc2)cc1OCC` as the compound, how does the lipid storage change, negative = inhibition read?
**A.** inconclusive: 47.2%

**Q.** With `O=[N+]([O-])c1ccc(-c2csc(Nc3ccccc3)[n+]2Cc2ccccc2)cc1` as the compound, how does the Potency read?
**A.** active: 13 µM

**Q.** Which lipid storage change, negative = inhibition does the source give for `CC(=O)Nc1ccc(C(=O)NNC(=O)CCc2ccccc2)cc1` here?
**A.** inconclusive: 13.7%

**Q.** With `CCC(C)(C)NC(=O)C(c1cccc(OC)c1OC)N(CCC(C)C)C(=O)CCC(=O)Nc1cc(C)on1` (stereo not drawn) as the compound, how does the lipid storage change, negative = inhibition read?
**A.** inconclusive: -33%

**Q.** Which lipid storage change, negative = inhibition does the source give for `COc1cc2ccccc2cc1C(=O)N1CCc2ccccc21` here?
**A.** inconclusive

**Q.** With `CCCn1cc(CN2CCC(n3nccc3NC(=O)c3ccc4c(c3)OCO4)CC2)c(C)n1` as the compound, how does the Potency read?
**A.** inconclusive: 1.16 µM [activator, partial curve]

**Q.** For `COc1ccccc1NC(=O)COc1ccc(-c2nn(C)c(=O)c3ccccc23)cc1`, which Potency is on record?
**A.** inconclusive: 11.6 µM [activator, partial curve]

**Q.** With `O=C(NNS(=O)(=O)c1ccc(Cl)cc1)c1sccc1-n1cccc1` as the compound, how does the lipid storage change, negative = inhibition read?
**A.** inconclusive: -12.3%

**Q.** With `CC1(C)Cc2c(sc(NC(=O)C(=O)N3CCN(CCO)CC3)c2C(N)=O)CO1` as the compound, how does the lipid storage change, negative = inhibition read?
**A.** inconclusive: 28.1%

**Q.** Which Potency does the source give for `O=C(CNc1cccc(Cl)c1)c1ccc(Br)cc1` here?
**A.** inconclusive: 23.1 µM [activator, partial curve]

**Q.** Which Potency does the source give for `Cc1cc(NS(=O)(=O)c2ccc(NC(=O)/C=C/c3ccccc3Cl)cc2)no1` here?
**A.** inconclusive: 5.17 µM [activator, partial curve, poor fit]

**Q.** Which lipid storage change, negative = inhibition does the source give for `O=C(c1ccc2c(c1)OCO2)N1CCN(S(=O)(=O)c2ccc(Cl)cc2)CC1` here?
**A.** inconclusive: -100%
